# Data from the supplement of paper PMC10338343.
# ± gives the standard deviation. The list shows a part of the results. The uncertainty is large for many entries.
# Test system: EfPiwi piRISC loaded with L1MC piRNA (26 nt)
# Assay: pre-steady-state target cleavage rate (min^-1); guide: L1MC piRNA 5'p-UAACUAAAUACUAUGCAAGCUGUAGG; MIWI and MILI are mouse PIWI proteins and EfPiwi is from a freshwater sponge; tags in brackets are library labels; higher = faster piRNA-guided slicing of the target
# Conditions: auxiliary factor: none (no Gtsf1)
# Procedure, shortened: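 Cleave-'n-Seq used a transcribed, DNA-blocked target RNA library at 0.1 nM and active affinity-purified piRISC with one synthetic guide at 1 nM, with or without 500 nM GTSF1 partner protein, in HEPES–potassium acetate buffer at 33 °C for 0–8 or 0–960 min. Uncleaved targets were sequenced and normalised to depth and to weakly complementary targets, and three trials were pooled with k3 capped at 0.0001 min^-1. The pre-steady-state cleavage rate was estimated by a burst-and-steady-state fit.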
row,Sequence,pre-steady-state target cleavage rate
1,UCCUGGAUGUCGAACGAAAGUUUUUAGUUA,< 0.0001
2,UCCUGGUACAGCUUGCAUACUAUUUAGUAA,0.000499 ± 0.021
3,UCCUGGAUGUGCUUGCAUAGUAUUUAGCUUA,0.000445 ± 0.021
4,UCCUGCUACAGCUUGCAUAGAAUUUAGAAA,0.000391 ± 0.0099
5,UCCUGGAUGUGCUUGCAUAGUAUUUAGAUUA,0.000928 ± 0.011
6,UCCUCCUACACCUUGCAUACUAUUUAGUUA,0.000494 ± 0.01
7,UCCUCCAUGAGCUUGCAUAGUAUUUAGAAA,0.000204 ± 0.023
